In assay [1] the target is HDAC2 (as tested in the F3H assay) (UniProt Q92769). The assay can be described thus: fluorescent three-hybrid assay (F3H); BHK cells with a genomic LacOp array, transfected with LacI fused to a GFP binder, the GFP-tagged bait and Flag-HSF2; co-recruitment to the nuclear spot seen by confocal microscopy.
Assay [2] has as its target HDAC1-GFP (in HEK 293 cells) (UniProt Q13547). The assay can be described thus: co-IP; GFP-Trap of HDAC1-GFP from extracts of co-transfected HEK 293 cells (50 mM Hepes pH 8, 100 mM NaCl, 5 mM EDTA, Triton X-100 0.5%, glycerol 10%, VPA 1 mM); HSF2 detected with anti-Myc.
In assay [3] the target is endogenous HSF2 protein of the mouse fetal cortex (mouse (endogenous in fetal cortex)) (UniProt P38533). The assay can be described thus: co-IP; HSF2 immunoprecipitated from lysates of the mouse fetal cortex (E12.5); immunodetection by Simple Western (ProteinSimple Jess).

Amino acid sequences for entries named in this document (tags omitted). A change or cut given only in a name is not applied to a line headed by its entry.
UniProt Q92769: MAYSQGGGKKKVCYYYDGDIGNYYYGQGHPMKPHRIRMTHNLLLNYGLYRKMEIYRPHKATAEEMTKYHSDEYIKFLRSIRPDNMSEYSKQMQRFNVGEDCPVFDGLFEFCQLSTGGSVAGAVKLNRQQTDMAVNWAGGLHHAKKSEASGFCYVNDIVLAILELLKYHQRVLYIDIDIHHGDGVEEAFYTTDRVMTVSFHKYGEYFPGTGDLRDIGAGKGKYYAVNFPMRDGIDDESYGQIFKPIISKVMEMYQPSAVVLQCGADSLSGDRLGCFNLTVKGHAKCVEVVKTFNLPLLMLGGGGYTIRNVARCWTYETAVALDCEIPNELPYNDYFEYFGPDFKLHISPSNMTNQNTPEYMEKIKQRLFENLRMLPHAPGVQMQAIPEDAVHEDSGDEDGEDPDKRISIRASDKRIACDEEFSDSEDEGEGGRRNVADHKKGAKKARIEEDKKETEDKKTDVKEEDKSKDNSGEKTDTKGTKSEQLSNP
UniProt Q13547: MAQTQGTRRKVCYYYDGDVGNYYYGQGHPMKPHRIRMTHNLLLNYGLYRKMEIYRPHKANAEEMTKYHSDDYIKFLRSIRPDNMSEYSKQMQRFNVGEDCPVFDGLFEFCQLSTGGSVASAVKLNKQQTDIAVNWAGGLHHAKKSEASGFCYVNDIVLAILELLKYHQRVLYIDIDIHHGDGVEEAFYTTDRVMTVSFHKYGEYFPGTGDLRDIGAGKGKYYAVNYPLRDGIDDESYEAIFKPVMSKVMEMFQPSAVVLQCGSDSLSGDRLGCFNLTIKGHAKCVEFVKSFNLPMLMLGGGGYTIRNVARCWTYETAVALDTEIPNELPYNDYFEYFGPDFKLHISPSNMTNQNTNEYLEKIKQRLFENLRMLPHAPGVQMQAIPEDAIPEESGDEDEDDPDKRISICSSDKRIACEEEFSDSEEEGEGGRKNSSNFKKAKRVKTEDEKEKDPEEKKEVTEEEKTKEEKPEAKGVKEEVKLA
UniProt P38533: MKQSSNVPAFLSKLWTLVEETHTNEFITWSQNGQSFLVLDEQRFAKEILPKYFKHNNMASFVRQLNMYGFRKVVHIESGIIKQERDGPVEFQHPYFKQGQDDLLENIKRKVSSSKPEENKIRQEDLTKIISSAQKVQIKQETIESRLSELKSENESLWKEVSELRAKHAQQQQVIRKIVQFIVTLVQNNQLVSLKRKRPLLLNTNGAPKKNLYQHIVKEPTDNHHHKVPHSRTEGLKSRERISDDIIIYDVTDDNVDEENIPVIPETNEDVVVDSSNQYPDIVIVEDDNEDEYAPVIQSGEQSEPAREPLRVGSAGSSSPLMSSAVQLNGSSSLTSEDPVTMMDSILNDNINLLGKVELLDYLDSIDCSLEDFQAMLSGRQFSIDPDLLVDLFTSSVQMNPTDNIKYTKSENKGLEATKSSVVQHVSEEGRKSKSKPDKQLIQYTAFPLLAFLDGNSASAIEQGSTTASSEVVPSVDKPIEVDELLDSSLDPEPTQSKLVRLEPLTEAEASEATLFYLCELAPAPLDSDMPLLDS
UniProt Q03933: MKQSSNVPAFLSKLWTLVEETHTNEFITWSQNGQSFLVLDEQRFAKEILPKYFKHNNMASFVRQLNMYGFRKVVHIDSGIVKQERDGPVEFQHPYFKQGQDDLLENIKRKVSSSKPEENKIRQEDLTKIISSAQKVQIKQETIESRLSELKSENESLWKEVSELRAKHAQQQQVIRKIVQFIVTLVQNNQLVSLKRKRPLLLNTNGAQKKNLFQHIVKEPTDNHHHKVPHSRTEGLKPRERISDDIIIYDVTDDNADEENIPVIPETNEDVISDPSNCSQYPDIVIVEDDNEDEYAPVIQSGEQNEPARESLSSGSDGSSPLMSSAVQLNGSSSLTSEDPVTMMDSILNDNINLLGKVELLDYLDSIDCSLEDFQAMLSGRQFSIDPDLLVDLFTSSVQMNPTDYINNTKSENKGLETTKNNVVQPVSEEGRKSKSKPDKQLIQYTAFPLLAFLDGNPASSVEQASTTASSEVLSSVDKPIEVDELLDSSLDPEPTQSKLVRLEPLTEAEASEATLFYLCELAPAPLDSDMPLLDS
UniProt O09106: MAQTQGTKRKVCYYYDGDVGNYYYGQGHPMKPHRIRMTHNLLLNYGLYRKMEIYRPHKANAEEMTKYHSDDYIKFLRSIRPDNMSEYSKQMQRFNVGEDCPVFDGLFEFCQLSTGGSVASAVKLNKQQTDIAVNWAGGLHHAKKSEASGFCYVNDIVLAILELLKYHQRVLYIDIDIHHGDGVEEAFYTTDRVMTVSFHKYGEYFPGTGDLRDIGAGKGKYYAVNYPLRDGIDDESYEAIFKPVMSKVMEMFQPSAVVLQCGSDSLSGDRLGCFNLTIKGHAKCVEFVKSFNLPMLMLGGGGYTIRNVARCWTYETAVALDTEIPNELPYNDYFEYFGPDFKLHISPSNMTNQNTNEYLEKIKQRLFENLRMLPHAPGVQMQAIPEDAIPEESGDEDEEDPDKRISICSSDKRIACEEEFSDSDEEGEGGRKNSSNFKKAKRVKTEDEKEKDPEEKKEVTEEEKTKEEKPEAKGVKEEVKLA

These are yes or no findings as the source states them, for the method shown. For part of these data: Binding seen in cells or lysates may run through a third protein. Some binding calls cover weakened binding; strength is not graded here.

Turning to “Flag-HSF2 (in BHK cells) (from UniProt Q03933 1-536)”, the binding entry in assay [1] was “no binding”.

With HSF2-Myc (from UniProt Q03933 1-536), the binding entry in assay [2] is on record as “binds”.

“lysine-deacetylase HDAC1, mouse (from UniProt O09106 1-482) (enzyme)”: in assay [3], the binding result is “binds”.

The record behind these values is publication PMC12150047.
